# Source: PubChem BioAssay AID2685 (National Center for Advancing Translational Sciences (NCATS), 2010)
# This is one part of the list. Further columns of the screen follow, without active or inactive calls. The list favours compounds with an active or inconclusive main result. The note in brackets gives the kind of curve behind each potency; many fits are weak.
# Test: qHTS Assay for Lipid Storage Modulators in Drosophila S3 Cells;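 on cell number change: cells counted by Cell Tracker Red CMTPX staining in the red channel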
# Details: BODIPY lipid droplet fluorescence, 18-24 h; for cell number change: measured here: cell count max response, cells fed with added oleic acid
# Procedure, shortened: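 Laser-scanning cytometry quantifies lipid droplet accumulation (500–530 nm total intensity; droplet/cell object ratio) in oleic acid-fed (400 uM added) Drosophila S3 cells treated with a concentration series. 20 uM Triacsin C defined 100% inhibition.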
# [1] = measured here: lipid fluorescence (Fed channel) AC50, cells fed with added oleic acid
# [2] = measured here: cell number channel AC50, cells fed with added oleic acid
SMILES,cell number change [%],AC50 [1],AC50 [2]
O=C(CC1(O)C(=O)Nc2ccccc21)c1ccc2c(c1)OCO2 (centres undefined),-10.9,"18.4 µM [falling, partial curve]",–
CC1CCN(CCCNC(=O)c2cn(C)c3ccc(S(=O)(=O)N4CCCC4)cc3c2=O)CC1,-70.8,–,"29.1 µM [falling, single point]"
CCC(C)[C@H](NC(=O)NCc1ccccc1)C(=O)O (some centres undefined),-33.4,"29.1 µM [falling, single point]","0.13 µM [falling, full curve, poor fit]"
COCCCNCCOCCOc1c(OC)cccc1OC,6.53,–,–
COC(=O)c1[nH]c2ccc(C)cc2c1NC(=O)c1ccccc1[N+](=O)[O-],47.5,–,"29.1 µM [rising, single point]"
CN(C)C1=NC[C@H](Cc2ccccc2)N1CC1CCCCC1,-0.765,"8.2 µM [rising, partial curve, poor fit]",–
O=C(O)c1ccnc2c(O)cccc12,16,"1.64 µM [rising, partial curve]",–
COCC(C)NC(=O)c1cc(-c2ccccc2OC)on1 (centres undefined),-8.14,"29.1 µM [rising, single point]",–
O=C(NCC(c1cccs1)N1CCOCC1)c1cn(-c2ccccc2)nc1-c1ccc(F)cc1 (centres undefined),75.8,–,"5.8 µM [rising, full curve, poor fit]"
COc1cc(OC)cc(C(=O)N2c3ccc(F)cc3CCC2C)c1 (centres undefined),–,–,"2.91 µM [rising, single point]"
CCSc1ccc(-c2nn(-c3ccccc3)cc2/C=C(/C#N)C(=O)NC)cc1,-32.5,"1.64 µM [falling, full curve]","1.46 µM [falling, full curve]"
CCOC(=O)c1ncn2c1CN(C)C(=O)c1cc(F)ccc1-2,–,"29.1 µM [rising, single point]",–
Cc1cccc(NC(=O)NC2CCCCCCC2)c1,-22.3,"29.1 µM [falling, single point]",–
O=C(/C=C/c1c(F)cccc1Cl)Nc1ncccn1,-0.503,"6.51 µM [rising, single point]","2.91 µM [rising, single point]"
Cc1cc(C)cc(NC(=O)c2cc(S(=O)(=O)N3CCCC3)cn2C)c1,-3.46,"23.1 µM [falling, single point]",–
CC(C)N(C(=O)CC1ON(C)C(=O)N1c1ccc(Cl)cc1)C(C)C (centres undefined),22.9,"18.4 µM [rising, single point]",–
CCOC(=O)c1[nH]c2ccc(OCC)cc2c1NC(=O)CN1CCN(c2ccccn2)CC1,-5.75,"18.4 µM [rising, partial curve, poor fit]",–

# One compound at a time, from the list above.
# CC(C)N(C(=O)CC1ON(C)C(=O)N1c1ccc(Cl)cc1)C(C)C (centres undefined) reads cell number change [%]: 22.9; AC50 [1]: 18.4 µM [rising, single point]
# O=C(/C=C/c1c(F)cccc1Cl)Nc1ncccn1 reads cell number change [%]: -0.503; AC50 [1]: 6.51 µM [rising, single point]; AC50 [2]: 2.91 µM [rising, single point]
